Assay results published in patent publication US20160258940A1 (IMRA AMERICA, published 2016).
These are yes or no findings as the source states them, for the method shown. Some entries that bind do so weakly or less than the wild type.

Chains of the proteins cited; added tags and fusions are not shown.
UniProt Q15149: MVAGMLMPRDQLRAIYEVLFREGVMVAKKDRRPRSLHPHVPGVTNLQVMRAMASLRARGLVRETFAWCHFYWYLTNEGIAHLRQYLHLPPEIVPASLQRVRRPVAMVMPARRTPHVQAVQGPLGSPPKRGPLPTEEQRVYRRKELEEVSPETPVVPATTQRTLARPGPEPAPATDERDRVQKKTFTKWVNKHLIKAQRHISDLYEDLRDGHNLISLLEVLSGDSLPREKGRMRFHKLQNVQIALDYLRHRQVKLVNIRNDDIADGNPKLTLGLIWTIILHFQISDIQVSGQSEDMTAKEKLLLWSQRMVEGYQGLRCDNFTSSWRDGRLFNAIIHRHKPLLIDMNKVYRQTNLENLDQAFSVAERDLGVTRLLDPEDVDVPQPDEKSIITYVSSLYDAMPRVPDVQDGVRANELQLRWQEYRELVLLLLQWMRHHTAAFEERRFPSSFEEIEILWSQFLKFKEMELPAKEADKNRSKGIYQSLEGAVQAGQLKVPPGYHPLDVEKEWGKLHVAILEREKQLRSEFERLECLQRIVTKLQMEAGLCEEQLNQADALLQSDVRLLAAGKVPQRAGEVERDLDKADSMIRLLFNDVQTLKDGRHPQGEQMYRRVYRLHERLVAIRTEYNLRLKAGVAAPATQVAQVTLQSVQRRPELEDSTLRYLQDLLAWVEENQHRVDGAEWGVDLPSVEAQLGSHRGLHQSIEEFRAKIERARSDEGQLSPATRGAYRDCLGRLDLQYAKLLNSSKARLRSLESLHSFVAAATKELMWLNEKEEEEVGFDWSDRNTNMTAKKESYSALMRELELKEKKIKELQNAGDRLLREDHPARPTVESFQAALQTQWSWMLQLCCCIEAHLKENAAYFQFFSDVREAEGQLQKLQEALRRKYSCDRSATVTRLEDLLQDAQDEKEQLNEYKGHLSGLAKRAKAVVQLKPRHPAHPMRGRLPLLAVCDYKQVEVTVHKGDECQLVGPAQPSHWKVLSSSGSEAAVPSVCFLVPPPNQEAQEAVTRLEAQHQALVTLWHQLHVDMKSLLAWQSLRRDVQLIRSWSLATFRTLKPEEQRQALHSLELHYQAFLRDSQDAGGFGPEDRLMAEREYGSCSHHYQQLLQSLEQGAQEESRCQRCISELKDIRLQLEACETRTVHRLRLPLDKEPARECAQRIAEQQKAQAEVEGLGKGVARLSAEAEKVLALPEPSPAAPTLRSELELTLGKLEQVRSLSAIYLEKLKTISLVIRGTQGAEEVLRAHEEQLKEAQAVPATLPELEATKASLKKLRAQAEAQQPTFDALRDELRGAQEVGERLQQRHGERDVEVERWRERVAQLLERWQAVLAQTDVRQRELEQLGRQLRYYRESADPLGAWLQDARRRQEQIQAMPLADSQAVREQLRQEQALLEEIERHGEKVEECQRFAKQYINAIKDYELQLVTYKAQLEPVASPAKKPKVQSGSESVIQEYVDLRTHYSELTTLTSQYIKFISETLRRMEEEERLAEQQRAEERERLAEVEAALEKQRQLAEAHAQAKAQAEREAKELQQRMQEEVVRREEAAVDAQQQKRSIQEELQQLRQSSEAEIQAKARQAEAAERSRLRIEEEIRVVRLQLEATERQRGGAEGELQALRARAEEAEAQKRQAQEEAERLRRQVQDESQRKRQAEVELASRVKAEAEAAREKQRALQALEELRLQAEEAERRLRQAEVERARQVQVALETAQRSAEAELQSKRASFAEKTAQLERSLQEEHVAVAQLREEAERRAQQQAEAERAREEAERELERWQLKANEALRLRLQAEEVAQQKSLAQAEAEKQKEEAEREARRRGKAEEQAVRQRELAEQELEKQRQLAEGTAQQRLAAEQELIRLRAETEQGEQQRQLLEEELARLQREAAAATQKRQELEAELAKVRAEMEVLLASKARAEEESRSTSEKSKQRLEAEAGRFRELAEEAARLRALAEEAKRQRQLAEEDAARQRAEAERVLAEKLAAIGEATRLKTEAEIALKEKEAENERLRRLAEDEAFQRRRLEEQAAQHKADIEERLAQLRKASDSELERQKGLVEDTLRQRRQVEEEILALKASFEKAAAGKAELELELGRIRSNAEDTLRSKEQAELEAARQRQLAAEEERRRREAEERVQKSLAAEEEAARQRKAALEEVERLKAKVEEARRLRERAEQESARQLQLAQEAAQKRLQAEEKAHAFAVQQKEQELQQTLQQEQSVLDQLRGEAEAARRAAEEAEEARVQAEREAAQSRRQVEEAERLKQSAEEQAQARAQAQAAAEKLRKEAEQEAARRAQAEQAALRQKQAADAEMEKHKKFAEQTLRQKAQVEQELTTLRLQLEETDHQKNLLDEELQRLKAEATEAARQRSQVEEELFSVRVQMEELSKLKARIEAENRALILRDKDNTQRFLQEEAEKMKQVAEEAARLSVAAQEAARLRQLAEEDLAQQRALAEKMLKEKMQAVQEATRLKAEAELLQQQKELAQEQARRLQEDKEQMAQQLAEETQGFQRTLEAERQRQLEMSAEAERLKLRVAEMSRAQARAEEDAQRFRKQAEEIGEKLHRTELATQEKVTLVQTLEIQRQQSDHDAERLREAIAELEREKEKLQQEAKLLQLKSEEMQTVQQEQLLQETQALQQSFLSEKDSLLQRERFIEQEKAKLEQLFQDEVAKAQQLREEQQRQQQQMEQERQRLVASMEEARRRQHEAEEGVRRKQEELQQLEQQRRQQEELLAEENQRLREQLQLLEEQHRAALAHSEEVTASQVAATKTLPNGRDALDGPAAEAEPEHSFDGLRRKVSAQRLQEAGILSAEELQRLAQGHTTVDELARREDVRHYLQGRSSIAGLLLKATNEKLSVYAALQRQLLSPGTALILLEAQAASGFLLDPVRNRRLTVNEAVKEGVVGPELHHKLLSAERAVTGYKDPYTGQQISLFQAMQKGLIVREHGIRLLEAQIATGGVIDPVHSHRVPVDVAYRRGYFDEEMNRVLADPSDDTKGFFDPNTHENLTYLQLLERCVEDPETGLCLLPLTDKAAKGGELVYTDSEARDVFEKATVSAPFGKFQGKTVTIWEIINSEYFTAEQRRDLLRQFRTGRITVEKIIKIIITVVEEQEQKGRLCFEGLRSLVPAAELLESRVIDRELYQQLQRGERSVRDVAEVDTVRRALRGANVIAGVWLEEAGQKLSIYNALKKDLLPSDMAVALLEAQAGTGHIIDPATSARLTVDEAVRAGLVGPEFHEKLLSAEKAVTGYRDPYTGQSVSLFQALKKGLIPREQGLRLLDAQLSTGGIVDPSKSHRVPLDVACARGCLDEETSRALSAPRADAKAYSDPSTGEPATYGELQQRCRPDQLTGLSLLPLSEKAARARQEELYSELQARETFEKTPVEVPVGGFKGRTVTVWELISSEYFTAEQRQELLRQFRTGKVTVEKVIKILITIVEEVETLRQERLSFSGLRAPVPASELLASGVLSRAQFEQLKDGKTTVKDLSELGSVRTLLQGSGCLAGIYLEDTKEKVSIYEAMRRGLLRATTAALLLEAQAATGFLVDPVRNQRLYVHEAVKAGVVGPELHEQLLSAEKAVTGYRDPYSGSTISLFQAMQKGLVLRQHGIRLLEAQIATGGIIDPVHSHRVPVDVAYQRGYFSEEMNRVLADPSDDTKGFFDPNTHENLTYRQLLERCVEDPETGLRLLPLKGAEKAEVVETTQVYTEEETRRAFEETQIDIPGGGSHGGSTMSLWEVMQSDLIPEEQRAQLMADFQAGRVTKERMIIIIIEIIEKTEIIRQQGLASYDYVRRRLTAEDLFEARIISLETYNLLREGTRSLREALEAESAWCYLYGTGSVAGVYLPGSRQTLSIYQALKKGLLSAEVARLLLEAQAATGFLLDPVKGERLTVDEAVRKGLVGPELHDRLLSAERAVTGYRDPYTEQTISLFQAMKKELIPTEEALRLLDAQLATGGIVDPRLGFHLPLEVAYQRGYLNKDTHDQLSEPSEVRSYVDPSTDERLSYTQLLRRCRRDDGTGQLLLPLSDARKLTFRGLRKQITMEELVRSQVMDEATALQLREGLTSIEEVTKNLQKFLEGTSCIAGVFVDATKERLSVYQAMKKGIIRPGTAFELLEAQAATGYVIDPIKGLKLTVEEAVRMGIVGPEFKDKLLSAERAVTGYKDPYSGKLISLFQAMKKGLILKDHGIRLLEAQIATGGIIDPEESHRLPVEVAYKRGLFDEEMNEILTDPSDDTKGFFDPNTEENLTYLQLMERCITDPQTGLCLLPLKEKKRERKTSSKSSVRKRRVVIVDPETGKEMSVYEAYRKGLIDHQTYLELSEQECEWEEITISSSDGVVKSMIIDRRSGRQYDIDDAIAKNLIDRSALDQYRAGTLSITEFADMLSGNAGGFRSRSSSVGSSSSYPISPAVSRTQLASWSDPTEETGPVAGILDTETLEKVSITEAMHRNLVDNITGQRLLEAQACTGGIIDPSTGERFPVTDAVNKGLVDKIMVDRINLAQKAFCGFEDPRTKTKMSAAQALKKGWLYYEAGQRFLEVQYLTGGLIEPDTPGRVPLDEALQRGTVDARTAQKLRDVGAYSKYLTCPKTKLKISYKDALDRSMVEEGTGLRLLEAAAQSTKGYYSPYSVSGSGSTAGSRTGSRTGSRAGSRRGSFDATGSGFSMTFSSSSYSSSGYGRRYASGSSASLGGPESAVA

Biological target: Plectin on the cell surface of MIAPaCa2 cells (UniProt Q15149)
Assay: dark field microscopy of fixed MIAPaCa2 cells with 20 nM peptide-modified gold nanoparticles

| Binder | binding |
| --- | --- |
| KTLLPTPGGC (amidated at the C-terminal) | binds |
| KTLLPTP (amidated at the C-terminal) | binds |
